The values are deposited in ChEMBL (CHEMBL3988442, “University of Dundee, Small-Polar-MMV Screening Library” (2021)).

Protein sequences, listed by entry. Tags and fused reporters are not part of them. Residues count along the entry.
UniProt Q8IDJ8, 1-583: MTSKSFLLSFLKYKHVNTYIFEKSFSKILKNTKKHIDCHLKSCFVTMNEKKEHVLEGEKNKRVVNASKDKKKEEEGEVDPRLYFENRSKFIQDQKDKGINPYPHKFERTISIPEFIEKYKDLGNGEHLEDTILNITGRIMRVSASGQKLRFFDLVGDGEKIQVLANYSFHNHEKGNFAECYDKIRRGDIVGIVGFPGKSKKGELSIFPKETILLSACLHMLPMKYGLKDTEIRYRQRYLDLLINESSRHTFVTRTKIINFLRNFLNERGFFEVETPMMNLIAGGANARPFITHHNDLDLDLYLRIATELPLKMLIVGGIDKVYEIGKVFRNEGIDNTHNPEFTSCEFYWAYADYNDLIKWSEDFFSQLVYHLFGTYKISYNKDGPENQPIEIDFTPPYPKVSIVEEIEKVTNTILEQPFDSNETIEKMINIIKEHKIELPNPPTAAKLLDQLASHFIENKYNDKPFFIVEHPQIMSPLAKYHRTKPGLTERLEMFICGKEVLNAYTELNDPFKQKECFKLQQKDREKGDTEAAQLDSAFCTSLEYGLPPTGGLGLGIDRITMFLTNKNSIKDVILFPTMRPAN
UniProt A4I591, 1-473: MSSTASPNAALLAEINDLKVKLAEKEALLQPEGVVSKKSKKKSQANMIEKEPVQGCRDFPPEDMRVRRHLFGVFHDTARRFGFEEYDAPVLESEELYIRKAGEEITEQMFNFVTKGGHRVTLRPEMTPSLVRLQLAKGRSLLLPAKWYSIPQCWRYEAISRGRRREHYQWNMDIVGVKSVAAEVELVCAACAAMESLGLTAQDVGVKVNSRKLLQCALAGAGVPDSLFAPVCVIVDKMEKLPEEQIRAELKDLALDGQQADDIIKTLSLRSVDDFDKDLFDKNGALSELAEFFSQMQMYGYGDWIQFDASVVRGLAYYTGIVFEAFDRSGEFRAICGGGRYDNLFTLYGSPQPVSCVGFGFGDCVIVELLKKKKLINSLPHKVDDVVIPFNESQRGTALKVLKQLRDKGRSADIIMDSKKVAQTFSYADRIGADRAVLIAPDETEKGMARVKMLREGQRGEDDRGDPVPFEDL

T. brucei: 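Whole-parasite assay of Trypanosoma brucei over 72 hours; the read-out is not stated. Tested at 30 µM. The record gives no direction; compounds that gave an IC50 in retests scored well above the rest, so higher reads as stronger inhibition. Values scatter widely below zero; nearly all retest evidence comes from the higher of the two concentrations used. Of about 64,000 compounds tested this way, about 940 (1.5%) reached 50% or more in at least one test.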
PfKRS1: 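Lysine-tRNA ligase, Plasmodium falciparum 3D7 (UniProt Q8IDJ8). Enzyme assay of the cytosolic lysyl-tRNA synthetase in 384-well plates, read by luminescence. Concentration: 30 µM. Direction is inferred from only a few compounds that gave an IC50; most scored high, so higher reads as stronger inhibition. About 69,000 compounds were tested under these conditions; 0.071% (about 49) showed 50% or more at least once.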
LiHisRS: 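Enzyme assay of histidyl-tRNA synthetase; the read-out is not stated. Target: Histidine-tRNA ligase, Leishmania infantum (UniProt A4I591). Compounds at 30 µM. Higher reads as stronger inhibition (inferred: compounds with an IC50 in retests scored well above the rest). The assay is labelled LdHisRS but filed under L. infantum. Size under these conditions: about 69,000 compounds, about 410 of them at 50% or above in at least one test.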
Toxoplasma: 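Assay of Toxoplasma gondii numbers, read through their beta-galactosidase reporter with a colour substrate. Concentration: 10 µM. The record gives no direction; the compounds picked for IC50 retests had high values, so higher reads as fewer parasites. Of about 67,000 compounds tested this way, about 260 (0.38%) reached 50% or more in at least one test.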

The filed quantity is “Percent Effect” (%).
The record does not define 0% and 100%; most values in the screen are far below 50% and negative numbers occur (in some assays of this library far below -100).
This is an unselected part of the compounds tested.
A dash means the value is not listed here; it may have been measured.

| # | Compound | T. brucei | PfKRS1 | LiHisRS | Toxoplasma |
|---|---|---|---|---|---|
| 1 | `COc1cccc(CNc2c(O)c(=O)c2=O)c1` | -43.16 | 5.316 | 13.16 | -0.603 |
| 2 | `CN(C)S(=O)(=O)c1ccc(CN2CCCC2c2cccs2)o1` (centres undefined) | -3.932 | -2.735 | 11.61 | -16.32 |
| 3 | `N#Cc1ncn(CCS(=O)(=O)c2ccccc2)n1` | 3.503 | 4.607 | 19.48 | -0.5907 |
| 4 | `N#Cc1ncn(Cc2c(F)cccc2Cl)n1` | 3.306 | 2.528 | 45.78 | -2.813 |
| 5 | `NC(=O)NC(=O)C(c1ccccc1)N1CCN(Cc2ccsc2)CC1` (centres undefined) | - | 4.546 | 12.39 | 5.085 |
| 6 | `Cn1ccnc1SCCNC(=O)Cn1cnc2ccccc2c1=O` | 2.984 | 3.736 | 12 | -4.038 |
| 7 | `COCc1nc(CNc2cc(C)on2)cs1` | 6.015 | 1.608 | 11.71 | -3.636 |
| 8 | `O=S(=O)(c1ccc(F)c(F)c1)N1CCCC(c2nccs2)C1` (centres undefined) | -23.82 | 1.037 | 7.368 | -9.664 |
| 9 | `COc1ccccc1CC(=O)N1CCC(OCc2cccnc2)CC1` | -2.338 | 2.391 | 15.58 | -3.3 |
| 10 | `CN(CCCc1cnn(C)c1)C(=O)Nc1cccc(C#N)c1` | -20.39 | 4.488 | 7.853 | 3.433 |
| 11 | `COCCC(=O)N1CCc2cc(Cl)cc(Cl)c2C1` | -8.689 | 3.611 | 6.604 | 21.08 |
| 12 | `COCCN1CC(O)CN(C(=O)c2ccc(SC)cc2)CC1=O` (centres undefined) | -27.61 | 8.53 | 12.24 | -1.882 |
| 13 | `COc1ccc(C(=O)n2nc(C)c(C)c2C)cc1` | -58.53 | 1.577 | -1.667 | 3.137 |
| 14 | `Cc1cc(=O)n(C)cc1NC(=O)Cc1cccc(Cl)c1` | -15.11 | 26.22 | 106.8 | 14.19 |
| 15 | `O=C(O)c1ccn(-c2cccc(NC(=O)c3ccccc3Cl)c2)n1` | -7.06 | 4.137 | 14.67 | -0.06892 |
| 16 | `Cc1cccc(C(=O)Nc2ccc(OC3CCOCC3)c(C)c2)n1` | -6.396 | 1.385 | 13.68 | 0.8221 |
| 17 | `O=C(NCc1nncn1C1CC1)c1cccnc1Oc1ccccc1` | -43.2 | -1.7 | -3.109 | 2.524 |
| 18 | `COC(=O)c1ccc(N2CCC(c3ccccc3)CC2)nn1` | -22.79 | 0.4473 | 20.83 | -1.826 |
| 19 | `CC(=O)N1CCC(N[C@@H]2CO[C@H](CNC(=O)c3cccs3)[C@H]2O)CC1` | -41.12 | -1.773 | 19.44 | -5.328 |
| 20 | `Oc1cccc(C2CN(c3nnc(C4CC4)s3)CCO2)c1` (centres undefined) | 3.708 | -0.7193 | 1.042 | 0.5508 |
| 21 | `Cc1ccc(N2Cc3nc(=O)[nH]n3C2=O)cc1` | -36.38 | -0.7245 | -3.333 | -6.633 |
| 22 | `c1cc(-c2ccc3nc(C4CCN(CC5CC5)CC4)nn3c2)ccn1` | - | -0.4368 | 24.19 | - |
| 23 | `CN1CCCC2(CCN(C(=O)Cn3ncc4ccccc4c3=O)C2)C1=O` (centres undefined) | -58.38 | -1.562 | 8.696 | - |
| 24 | `Cc1cnc2c(c1NCc1cccnc1)c(=O)n(C)c(=O)n2C` | -45.54 | 0.7501 | 10.26 | 16.67 |
| 25 | `CC[C@H](C)[C@H](N)C(=O)Nc1nc(-c2cnc(N3CCOCC3)nc2)cs1` | 13.61 | 3.056 | 42.86 | -39.19 |
| 26 | `CN(Cc1cnc(N)nc1)C(=O)C1CCN(C(=O)C2CCCC2)CC1` | -3.572 | 3.034 | 21.71 | 0.946 |
| 27 | `CCc1nc(CNC2CCCc3c2cnn3CC)cs1` (centres undefined) | -10.01 | -5.317 | 0.8333 | -1.941 |
| 28 | `Cc1cc(C)n(CC2CCCN2CCc2ccccn2)n1` (centres undefined) | - | 0 | 5.505 | 1.017 |
| 29 | `Cc1cc(=O)[nH]c(=O)n1-c1cccc(Cl)c1Cl` | -1.237 | 2.528 | 5.435 | -1.887 |
| 30 | `Cc1nc(C2CCCN(C(=O)c3cnn(C(C)(C)C)c3)C2)no1` (centres undefined) | 10.29 | 3.484 | 21.62 | 1.294 |
| 31 | `CNc1cc(C)nc(N2CCN(Cc3ccccc3)CC(O)C2)n1` (centres undefined) | -11.16 | 3.09 | 22.22 | 0.07496 |
| 32 | `Cc1nnc(N2CCN(C(=O)NC3CC3)CC2)c(C(N)=O)c1C` | -13.82 | 7.195 | 16 | 7.961 |
| 33 | `CCC1CN(Cc2c(O)ccc3oc4c(c23)CCCC4)CCO1` (centres undefined) | -128.8 | 3.461 | 3.333 | 0.4327 |
| 34 | `CCNC(=O)C1CCCN(Cn2nc(C(C)(C)C)ccc2=O)C1` (centres undefined) | -5.906 | -3.471 | 16.44 | 0.9841 |
| 35 | `Cc1cc2n(n1)CC(CNC1CCN(C(=O)C3CC3)CC1)CN2` (centres undefined) | -16.4 | 1.835 | 18.03 | 5.391 |
| 36 | `CN(C)C(=O)CO[C@@H]1CN(Cc2ccccc2)[C@@H]2CCCO[C@@H]21` | - | 3.694 | 26.03 | - |
| 37 | `c1ccc(OCC2CC3(CCN(Cc4ccncc4)CC3)CO2)nc1` (centres undefined) | 27.41 | 1.924 | 13.59 | -2.51 |
| 38 | `c1cnc(-c2nc(CN3CCC(c4ccn[nH]4)CC3)cs2)nc1` | 18.7 | 0.7972 | -36.92 | 11.63 |
| 39 | `CC(C(=O)N(C)C1CCCCC1)S(=O)(=O)Cc1csc(-c2cccs2)n1` (centres undefined) | -31.84 | 1.45 | 19.84 | 9.625 |
| 40 | `Cc1nsc2ncc(C(=O)N3CCCC3c3cnn(C)c3)cc12` (centres undefined) | -18.23 | 0.1125 | 3.571 | 1.804 |
| 41 | `Cc1ncsc1C(=O)N(C)Cc1ccncc1` | -84.21 | -3.117 | 15.2 | -8.045 |
| 42 | `c1cnc(NCc2n[nH]c3c2CCN(Cc2cccnc2)C3)nc1` | -42.22 | 6.978 | 13.68 | -2.287 |
| 43 | `COc1ccccc1CCNC(=O)C1CCC(Cn2cnnn2)CC1` (centres undefined) | -33.08 | 3.103 | 15.79 | -3.88 |
| 44 | `Cc1ccccc1S(=O)(=O)N(C)[C@@H]1CC[C@@H](n2ccnc2C)[C@@H]1O` | -15.26 | -1.334 | 9.79 | -1.541 |

The last 2 entries again:

Compound,T. brucei,PfKRS1,LiHisRS,Toxoplasma
COc1ccccc1CCNC(=O)C1CCC(Cn2cnnn2)CC1 (centres undefined),-33.08,3.103,15.79,-3.88
Cc1ccccc1S(=O)(=O)N(C)[C@@H]1CC[C@@H](n2ccnc2C)[C@@H]1O,-15.26,-1.334,9.79,-1.541